Test results reported in PMC4136804.
Results are given in words; binding and its absence hold for the method and conditions named. Where a sequence is shown, tags or fusion partners need not be part of it.

Biological target: recombinant MYM SIMs from ZNF261 (amino acids 236-490), untagged (human) (UniProt Q14202)
Assay: AUC; sedimentation equilibrium of the ZNF261 fragment alone at 10, 20 and 40 uM; 20 mM HEPES pH 7.6, 350 mM NaCl, 5 mM DTT, 10 uM ZnCl2, 10 C; 15,000, 20,000 and 25,000 rpm; single species model; both purified

binding: no binding (tested: 10, 20, and 40 µM)
B1: recombinant MYM SIMs from ZNF261 (amino acids 236-490), untagged (domain or fragment, UniProt Q14202 236-490)
chain: ERKRSERVRRAEPPKPEVVDSTESIPVSDEDSDAMVDDPNDEDFVPFRPRRSPRMSLRSSVSQRAGRSAVGTKMTCAHCRTPLQKGQTAYQRKGLPQLFCSSSCLTTFSKKPSGKKTCTFCKKEIWNTKDSVVAQTGSGGSFHEFCTSVCLSLYEAQQQRPIPQSGDPADATRCSICQKTGEVLHEVSNGSVVHRLCSDSCFSKFRANKGLKTNCCDQCGAYIYTKTGSPGPELLFHEGQQKRFCNTTCLGAYKK
